Tested on: isolated guinea pig ileum (Acetylcholine)
Assay: isolated guinea pig ileum screen, block of acetylcholine

CN(C)CCOC(c1ccccc1)c1ccccc1 [Diphenhydramine, reference compound]
Amount to produce a 50% block of Acetylcholine: 6 micrograms

Reference: patent publication US4060526A, “1-Heterocyclic alkyl-1,2,3,4-tetrahydroquinazolinones and analgesic intermediates thereof” (priority 1976, dated 1977)
